From publication PMC12430079, “Comprehensive UPLC-MS/MS Method for Quantifying Four Key Intestinal Permeability Markers in Caco-2 Models” (Molecules, 2025)

Assay: physchem
Details: Recovery under stability condition
Experimental: These tests included assessing short-term stability at room temperature, long-term stability during storage at −20 °C for up to 45 days, and stability across three freeze-thaw cycles. Additionally, the stability of the analytes was tested in the media used for intestinal permeability assays, specifically HBSS with MES and HEPES buffers at pH 6.0 and 7.4.

- recovery: 85.5 ± 2.8%
- recovery at 36 d: 86.2 ± 5.12%
SMILES: CC(C)NCC(O)COc1ccc(CC(N)=O)cc1 (centres unmarked) [Atenolol, atenolol]
